Experimental data from patent US9005627B2 (Anergis S.A., priority 2011, dated 2015).
End groups of sequences in plain letters are not given here. No end group written: not given here.

Assay: general procedure: Fmoc solid-phase peptide synthesis
Settings: whole synthesis, scale of the general procedure research scale of the general procedure

“AGSDGDAISISGSSQIWIDHCSLSKSVDGLVDAKLGTTRLTVSNSLFTQHQFVLLFGAGDENIEDRGMLATVAFNTFTDN” and “MHDVKVNPGGLIKSNDGPAAPRAGSDGDAISISGSSQIWIDHCSLSKSVDGLVDAKLGTTR” are the same in “final purity (method not given)” value: 60% for the first, 60% for the second.

With “VDAKLGTTRLTVSNSLFTQHQFVLLFGAGDENIEDRGMLATVAFNTFTDN” the “final purity (method not given)” value was 70%.
